Assay results published in article PMC10297930.
These are yes or no findings as the source states them, for the method shown. Binding seen in cells or lysates may run through a third protein. These calls come from enrichment with a bait or labelling near it, and not all partners need be listed. Where a sequence is shown, tags or fusion partners need not be part of it.

The chains behind the UniProt entries cited, without tags or fusion partners.
UniProt Q8TAQ2: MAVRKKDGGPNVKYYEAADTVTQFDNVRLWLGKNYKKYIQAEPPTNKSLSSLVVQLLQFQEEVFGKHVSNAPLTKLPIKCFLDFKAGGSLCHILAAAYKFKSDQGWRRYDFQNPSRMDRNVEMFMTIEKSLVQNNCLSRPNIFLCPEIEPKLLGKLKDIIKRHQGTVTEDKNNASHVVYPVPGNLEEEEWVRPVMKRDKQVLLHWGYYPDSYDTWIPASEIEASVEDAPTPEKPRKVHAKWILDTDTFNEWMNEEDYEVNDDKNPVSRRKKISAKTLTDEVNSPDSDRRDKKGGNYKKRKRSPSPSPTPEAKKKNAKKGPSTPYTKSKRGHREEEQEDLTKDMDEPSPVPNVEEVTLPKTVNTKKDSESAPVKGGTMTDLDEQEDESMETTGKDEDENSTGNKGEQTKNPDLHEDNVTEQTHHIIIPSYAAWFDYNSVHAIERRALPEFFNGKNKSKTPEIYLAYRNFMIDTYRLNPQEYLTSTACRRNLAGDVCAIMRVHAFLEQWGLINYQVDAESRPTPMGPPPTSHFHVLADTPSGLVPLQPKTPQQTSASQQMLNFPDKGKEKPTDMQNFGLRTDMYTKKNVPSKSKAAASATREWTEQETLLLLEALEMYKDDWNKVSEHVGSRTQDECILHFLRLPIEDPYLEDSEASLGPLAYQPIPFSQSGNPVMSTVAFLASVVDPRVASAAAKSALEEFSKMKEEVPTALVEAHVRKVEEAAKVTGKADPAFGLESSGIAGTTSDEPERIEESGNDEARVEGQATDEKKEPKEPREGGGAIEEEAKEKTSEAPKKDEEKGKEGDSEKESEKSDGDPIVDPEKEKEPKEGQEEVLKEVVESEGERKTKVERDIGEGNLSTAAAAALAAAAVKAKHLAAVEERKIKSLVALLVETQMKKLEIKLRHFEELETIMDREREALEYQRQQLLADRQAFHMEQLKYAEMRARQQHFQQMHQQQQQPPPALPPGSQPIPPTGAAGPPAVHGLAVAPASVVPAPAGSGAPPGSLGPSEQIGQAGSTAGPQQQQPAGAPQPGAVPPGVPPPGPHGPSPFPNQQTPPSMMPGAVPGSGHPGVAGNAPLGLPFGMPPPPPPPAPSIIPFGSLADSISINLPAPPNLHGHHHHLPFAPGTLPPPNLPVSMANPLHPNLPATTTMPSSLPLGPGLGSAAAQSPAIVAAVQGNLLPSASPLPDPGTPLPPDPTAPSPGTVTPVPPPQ
UniProt Q8TDI0: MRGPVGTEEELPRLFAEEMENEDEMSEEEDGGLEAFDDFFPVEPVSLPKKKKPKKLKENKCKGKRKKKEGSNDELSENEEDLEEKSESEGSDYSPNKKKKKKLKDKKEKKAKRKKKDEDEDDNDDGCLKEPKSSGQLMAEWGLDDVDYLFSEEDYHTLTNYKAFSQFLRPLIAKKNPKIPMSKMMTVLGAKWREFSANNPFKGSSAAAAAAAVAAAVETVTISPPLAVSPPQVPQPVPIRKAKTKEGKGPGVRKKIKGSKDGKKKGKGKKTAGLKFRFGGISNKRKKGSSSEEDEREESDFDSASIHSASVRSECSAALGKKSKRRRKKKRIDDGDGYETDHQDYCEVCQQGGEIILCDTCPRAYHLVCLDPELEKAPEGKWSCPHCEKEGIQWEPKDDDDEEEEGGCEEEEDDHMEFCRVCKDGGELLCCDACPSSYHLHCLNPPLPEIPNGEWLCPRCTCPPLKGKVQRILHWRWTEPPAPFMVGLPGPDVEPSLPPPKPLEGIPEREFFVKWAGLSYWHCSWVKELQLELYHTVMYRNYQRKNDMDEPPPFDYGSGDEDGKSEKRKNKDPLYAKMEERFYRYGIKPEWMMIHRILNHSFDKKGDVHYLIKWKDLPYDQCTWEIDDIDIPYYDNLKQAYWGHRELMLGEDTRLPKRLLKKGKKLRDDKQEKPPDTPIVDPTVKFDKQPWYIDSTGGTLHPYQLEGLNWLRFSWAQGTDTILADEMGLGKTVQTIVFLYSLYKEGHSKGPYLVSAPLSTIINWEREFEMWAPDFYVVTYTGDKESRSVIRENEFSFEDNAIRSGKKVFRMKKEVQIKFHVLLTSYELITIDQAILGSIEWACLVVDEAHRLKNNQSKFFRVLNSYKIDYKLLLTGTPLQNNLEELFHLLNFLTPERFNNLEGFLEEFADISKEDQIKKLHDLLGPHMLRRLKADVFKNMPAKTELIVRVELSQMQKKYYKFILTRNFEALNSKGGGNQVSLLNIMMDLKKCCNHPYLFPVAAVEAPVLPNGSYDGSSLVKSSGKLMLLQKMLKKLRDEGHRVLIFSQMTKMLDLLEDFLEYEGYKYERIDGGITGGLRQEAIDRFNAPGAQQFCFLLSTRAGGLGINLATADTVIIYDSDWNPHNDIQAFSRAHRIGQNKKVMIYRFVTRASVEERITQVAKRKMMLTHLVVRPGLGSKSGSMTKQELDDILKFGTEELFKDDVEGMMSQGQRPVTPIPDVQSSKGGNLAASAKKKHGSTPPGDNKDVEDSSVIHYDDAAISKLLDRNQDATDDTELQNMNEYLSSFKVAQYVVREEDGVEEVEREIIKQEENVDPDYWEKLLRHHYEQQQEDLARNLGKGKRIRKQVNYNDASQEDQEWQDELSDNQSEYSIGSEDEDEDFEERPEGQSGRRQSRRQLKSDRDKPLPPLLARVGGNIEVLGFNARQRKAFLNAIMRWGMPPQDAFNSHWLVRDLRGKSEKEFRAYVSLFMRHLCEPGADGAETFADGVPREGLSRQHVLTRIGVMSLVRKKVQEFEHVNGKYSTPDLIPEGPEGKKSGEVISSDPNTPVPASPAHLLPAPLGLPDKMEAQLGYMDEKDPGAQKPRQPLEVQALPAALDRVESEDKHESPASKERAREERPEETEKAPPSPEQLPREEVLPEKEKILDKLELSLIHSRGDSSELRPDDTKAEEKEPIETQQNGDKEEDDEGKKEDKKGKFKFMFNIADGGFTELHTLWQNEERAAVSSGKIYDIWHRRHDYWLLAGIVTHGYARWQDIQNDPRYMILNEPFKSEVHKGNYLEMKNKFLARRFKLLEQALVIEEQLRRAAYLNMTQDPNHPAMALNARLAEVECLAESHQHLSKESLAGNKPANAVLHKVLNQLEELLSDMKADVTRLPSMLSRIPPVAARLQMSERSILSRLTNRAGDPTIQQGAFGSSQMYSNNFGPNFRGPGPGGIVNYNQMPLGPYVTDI
UniProt P15924: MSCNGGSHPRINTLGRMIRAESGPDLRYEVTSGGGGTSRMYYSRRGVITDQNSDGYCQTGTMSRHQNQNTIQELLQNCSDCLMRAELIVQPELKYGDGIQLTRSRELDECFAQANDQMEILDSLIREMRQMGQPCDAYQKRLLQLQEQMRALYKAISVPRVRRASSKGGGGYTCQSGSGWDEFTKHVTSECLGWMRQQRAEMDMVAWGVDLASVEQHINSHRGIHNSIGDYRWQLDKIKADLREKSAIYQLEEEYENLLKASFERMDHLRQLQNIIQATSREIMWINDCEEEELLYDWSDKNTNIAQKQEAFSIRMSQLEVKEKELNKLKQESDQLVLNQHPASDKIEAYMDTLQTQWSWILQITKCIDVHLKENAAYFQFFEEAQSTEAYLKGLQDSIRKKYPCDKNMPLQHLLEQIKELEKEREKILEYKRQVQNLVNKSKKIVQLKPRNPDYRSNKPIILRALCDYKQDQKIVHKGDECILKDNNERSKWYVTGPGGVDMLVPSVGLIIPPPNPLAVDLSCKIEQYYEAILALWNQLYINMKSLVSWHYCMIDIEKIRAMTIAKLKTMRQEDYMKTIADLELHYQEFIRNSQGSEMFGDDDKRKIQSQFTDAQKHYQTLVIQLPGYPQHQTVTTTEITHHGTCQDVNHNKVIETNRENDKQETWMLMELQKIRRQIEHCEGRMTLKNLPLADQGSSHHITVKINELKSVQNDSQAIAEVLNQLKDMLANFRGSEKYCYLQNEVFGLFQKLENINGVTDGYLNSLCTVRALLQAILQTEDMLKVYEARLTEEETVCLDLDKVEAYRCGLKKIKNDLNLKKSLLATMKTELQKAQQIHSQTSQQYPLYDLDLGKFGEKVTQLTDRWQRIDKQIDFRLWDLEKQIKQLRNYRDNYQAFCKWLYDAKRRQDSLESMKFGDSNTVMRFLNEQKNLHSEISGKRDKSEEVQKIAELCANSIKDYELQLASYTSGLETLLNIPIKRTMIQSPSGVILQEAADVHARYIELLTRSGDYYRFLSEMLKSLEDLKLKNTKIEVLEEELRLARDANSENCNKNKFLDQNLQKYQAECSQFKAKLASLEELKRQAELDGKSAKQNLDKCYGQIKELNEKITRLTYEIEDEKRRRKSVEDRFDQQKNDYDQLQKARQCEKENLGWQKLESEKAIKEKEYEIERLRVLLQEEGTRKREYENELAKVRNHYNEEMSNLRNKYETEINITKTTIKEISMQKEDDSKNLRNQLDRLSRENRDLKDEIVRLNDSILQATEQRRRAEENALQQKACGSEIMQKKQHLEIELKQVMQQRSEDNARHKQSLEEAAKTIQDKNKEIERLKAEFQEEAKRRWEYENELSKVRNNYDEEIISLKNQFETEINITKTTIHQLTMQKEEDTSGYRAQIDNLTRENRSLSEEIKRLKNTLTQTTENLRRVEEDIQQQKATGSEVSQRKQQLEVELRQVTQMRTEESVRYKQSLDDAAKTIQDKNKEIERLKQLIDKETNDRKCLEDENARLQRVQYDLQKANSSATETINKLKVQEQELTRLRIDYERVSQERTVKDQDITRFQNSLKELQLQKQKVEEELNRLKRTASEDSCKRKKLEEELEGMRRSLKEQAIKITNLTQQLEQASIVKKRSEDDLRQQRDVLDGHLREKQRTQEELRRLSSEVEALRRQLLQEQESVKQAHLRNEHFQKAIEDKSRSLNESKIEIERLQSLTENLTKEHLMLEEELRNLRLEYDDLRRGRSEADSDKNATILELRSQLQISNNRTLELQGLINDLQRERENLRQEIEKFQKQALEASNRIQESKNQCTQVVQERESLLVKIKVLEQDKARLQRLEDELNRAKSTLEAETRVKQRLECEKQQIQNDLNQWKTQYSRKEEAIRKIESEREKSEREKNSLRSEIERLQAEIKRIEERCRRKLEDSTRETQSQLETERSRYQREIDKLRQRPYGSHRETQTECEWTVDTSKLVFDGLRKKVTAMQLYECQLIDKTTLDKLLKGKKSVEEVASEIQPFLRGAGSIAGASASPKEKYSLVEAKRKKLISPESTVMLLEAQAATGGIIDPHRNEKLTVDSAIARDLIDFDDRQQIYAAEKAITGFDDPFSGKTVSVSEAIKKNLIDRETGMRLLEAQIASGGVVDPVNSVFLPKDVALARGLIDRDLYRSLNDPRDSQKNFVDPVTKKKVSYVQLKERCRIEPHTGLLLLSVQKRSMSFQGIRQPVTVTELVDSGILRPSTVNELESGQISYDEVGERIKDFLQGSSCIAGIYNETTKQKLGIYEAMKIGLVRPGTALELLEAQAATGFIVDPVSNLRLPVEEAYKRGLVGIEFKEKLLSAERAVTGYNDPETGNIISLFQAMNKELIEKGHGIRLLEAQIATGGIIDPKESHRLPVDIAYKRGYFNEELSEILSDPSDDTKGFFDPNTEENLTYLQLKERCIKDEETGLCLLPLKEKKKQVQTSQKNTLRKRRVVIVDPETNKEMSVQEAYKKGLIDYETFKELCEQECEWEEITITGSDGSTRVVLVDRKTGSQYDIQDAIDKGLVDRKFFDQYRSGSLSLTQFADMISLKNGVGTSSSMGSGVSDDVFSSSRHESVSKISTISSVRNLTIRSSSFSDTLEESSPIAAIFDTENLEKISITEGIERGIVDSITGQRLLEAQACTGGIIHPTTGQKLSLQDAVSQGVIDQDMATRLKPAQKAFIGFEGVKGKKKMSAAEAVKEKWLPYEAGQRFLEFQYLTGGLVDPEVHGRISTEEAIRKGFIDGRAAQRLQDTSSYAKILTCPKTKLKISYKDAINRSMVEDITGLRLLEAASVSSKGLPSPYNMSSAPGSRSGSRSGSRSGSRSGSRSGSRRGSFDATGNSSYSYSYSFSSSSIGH
UniProt Q15717: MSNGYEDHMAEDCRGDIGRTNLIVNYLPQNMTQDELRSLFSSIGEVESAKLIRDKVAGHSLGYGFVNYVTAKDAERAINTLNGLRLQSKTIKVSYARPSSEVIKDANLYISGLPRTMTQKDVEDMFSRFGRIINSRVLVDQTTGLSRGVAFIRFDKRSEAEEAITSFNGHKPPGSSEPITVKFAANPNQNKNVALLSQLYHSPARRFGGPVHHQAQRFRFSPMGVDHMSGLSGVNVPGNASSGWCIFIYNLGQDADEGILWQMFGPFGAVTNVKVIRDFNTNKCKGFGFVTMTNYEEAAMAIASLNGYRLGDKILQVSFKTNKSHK

T1: Zeb1/GFP fusion protein (UniProt P37275)
T1 sequence: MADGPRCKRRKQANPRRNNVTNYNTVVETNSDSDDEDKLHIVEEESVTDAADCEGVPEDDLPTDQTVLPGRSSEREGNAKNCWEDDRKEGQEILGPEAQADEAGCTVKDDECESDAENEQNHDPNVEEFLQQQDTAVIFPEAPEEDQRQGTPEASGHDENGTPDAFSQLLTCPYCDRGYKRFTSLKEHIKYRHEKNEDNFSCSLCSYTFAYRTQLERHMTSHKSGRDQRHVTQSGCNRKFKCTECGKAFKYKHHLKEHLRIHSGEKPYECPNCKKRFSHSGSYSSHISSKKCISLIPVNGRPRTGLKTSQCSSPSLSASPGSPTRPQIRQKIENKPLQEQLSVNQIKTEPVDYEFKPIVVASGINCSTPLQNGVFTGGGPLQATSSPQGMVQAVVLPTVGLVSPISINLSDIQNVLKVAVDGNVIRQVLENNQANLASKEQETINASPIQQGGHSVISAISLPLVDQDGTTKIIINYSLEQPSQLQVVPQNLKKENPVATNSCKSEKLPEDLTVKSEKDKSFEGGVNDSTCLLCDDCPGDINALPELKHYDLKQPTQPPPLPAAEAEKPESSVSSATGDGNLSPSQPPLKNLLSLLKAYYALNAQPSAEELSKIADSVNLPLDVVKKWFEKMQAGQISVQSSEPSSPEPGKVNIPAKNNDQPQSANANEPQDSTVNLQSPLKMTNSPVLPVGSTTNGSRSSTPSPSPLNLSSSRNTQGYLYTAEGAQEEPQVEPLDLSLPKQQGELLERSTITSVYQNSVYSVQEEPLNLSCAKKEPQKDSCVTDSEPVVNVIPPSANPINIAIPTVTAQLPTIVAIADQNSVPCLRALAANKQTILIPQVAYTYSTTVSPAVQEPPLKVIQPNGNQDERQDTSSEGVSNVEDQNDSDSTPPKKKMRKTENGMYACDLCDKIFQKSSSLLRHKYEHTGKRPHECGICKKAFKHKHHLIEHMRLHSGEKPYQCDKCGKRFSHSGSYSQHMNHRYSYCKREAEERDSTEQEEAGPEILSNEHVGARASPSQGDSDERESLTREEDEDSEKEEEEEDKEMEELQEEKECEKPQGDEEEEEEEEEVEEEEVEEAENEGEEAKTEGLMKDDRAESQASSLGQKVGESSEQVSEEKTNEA

B1: Caseinolytic peptidase B protein homolog (CLPB) (protein, UniProt Q9H078 37-707)
chain: VTTGSLGEPQWLRVATGGRPGTSPALFSGRGAATGGRQGGRFDTKCLAAATWGRLPGPEETLPGQDSWNGVPSRAGLGMCALAAALVVHCYSKSPSNKDAALLEAARANNMQEVSRLLSEGADVNAKHRLGWTALMVAAINRNNSVVQVLLAAGADPNLGDDFSSVYKTAKEQGIHSLEDGGQDGASRHITNQWTSALEFRRWLGLPAGVLITREDDFNNRLNNRASFKGCTALHYAVLADDYRTVKELLDGGANPLQRNEMGHTPLDYAREGEVMKLLRTSEAKYQEKQRKREAEERRRFPLEQRLKEHIIGQESAIATVGAAIRRKENGWYDEEHPLVFLFLGSSGIGKTELAKQTAKYMHKDAKKGFIRLDMSEFQERHEVAKFIGSPPGYVGHEEGGQLTKKLKQCPNAVVLFDEVDKAHPDVLTIMLQLFDEGRLTDGKGKTIDCKDAIFIMTSNVASDEIAQHALQLRQEALEMSRNRIAENLGDVQISDKITISKNFKENVIRPILKAHFRRDEFLGRINEIVYFLPFCHSELIQLVNKELNFWAKRAKQRHNITLLWDREVADVLVDGYNVHYGARSIKHEVERRVVNQLAAAYEQDLLPGGCTLRITVEDSDKQLLKSPELPSPQAEKRLPKLRLEIIDKDSKTRRLDIRAPLHPEKVCNTI
B2: Zinc finger transcription factor Trps1 (TRPS1) (protein, UniProt Q9UHF7 1-1281)
chain: MVRKKNPPLRNVASEGEGQILEPIGTESKVSGKNKEFSADQMSENTDQSDAAELNHKEEHSLHVQDPSSSSKKDLKSAVLSEKAGFNYESPSKGGNFPSFPHDEVTDRNMLAFSSPAAGGVCEPLKSPQRAEADDPQDMACTPSGDSLETKEDQKMSPKATEETGQAQSGQANCQGLSPVSVASKNPQVPSDGGVRLNKSKTDLLVNDNPDPAPLSPELQDFKCNICGYGYYGNDPTDLIKHFRKYHLGLHNRTRQDAELDSKILALHNMVQFSHSKDFQKVNRSVFSGVLQDINSSRPVLLNGTYDVQVTSGGTFIGIGRKTPDCQGNTKYFRCKFCNFTYMGNSSTELEQHFLQTHPNKIKASLPSSEVAKPSEKNSNKSIPALQSSDSGDLGKWQDKITVKAGDDTPVGYSVPIKPLDSSRQNGTEATSYYWCKFCSFSCESSSSLKLLEHYGKQHGAVQSGGLNPELNDKLSRGSVINQNDLAKSSEGETMTKTDKSSSGAKKKDFSSKGAEDNMVTSYNCQFCDFRYSKSHGPDVIVVGPLLRHYQQLHNIHKCTIKHCPFCPRGLCSPEKHLGEITYPFACRKSNCSHCALLLLHLSPGAAGSSRVKHQCHQCSFTTPDVDVLLFHYESVHESQASDVKQEANHLQGSDGQQSVKESKEHSCTKCDFITQVEEEISRHYRRAHSCYKCRQCSFTAADTQSLLEHFNTVHCQEQDITTANGEEDGHAISTIKEEPKIDFRVYNLLTPDSKMGEPVSESVVKREKLEEKDGLKEKVWTESSSDDLRNVTWRGADILRGSPSYTQASLGLLTPVSGTQEQTKTLRDSPNVEAAHLARPIYGLAVETKGFLQGAPAGGEKSGALPQQYPASGENKSKDESQSLLRRRRGSGVFCANCLTTKTSLWRKNANGGYVCNACGLYQKLHSTPRPLNIIKQNNGEQIIRRRTRKRLNPEALQAEQLNKQQRGSNEEQVNGSPLERRSEDHLTESHQREIPLPSLSKYEAQGSLTKSHSAQQPVLVSQTLDIHKRMQPLHIQIKSPQESTGDPGNSSSVSEGKGSSERGSPIEKYMRPAKHPNYSPPGSPIEKYQYPLFGLPFVHNDFQSEADWLRFWSKYKLSVPGNPHYLSHVPGLPNPCQNYVPYPTFNLPPHFSAVGSDNDIPLDLAIKHSRPGPTANGASKEKTKAPPNVKNEGPLNVVKTEKVDRSTQDELSTKCVHCGIVFLDEVMYALHMSCHGDSGPFQCSICQHLCTDKYDFTTHIQRGLHRNNAQVEKNGKPKE
B3: Corrinoid adenosyltransferase (MMAB) (protein, UniProt Q96EY8 33-250)
chain: QSRGPQGVEDGDRPQPSSKTPRIPKIYTKTGDKGFSSTFTGERRPKDDQVFEAVGTTDELSSAIGFALELVTEKGHTFAEELQKIQCTLQDVGSALATPCSSAREAHLKYTTFKAGPILELEQWIDKYTSQLPPLTAFILPSGGKISSALHFCRAVCRRAERRVVPLVQMGETDANVAKFLNRLSDYLFTLARYAAMKEGNQEKIYMKNDPSAESEGL
B4: 2′-5′-oligoadenylatesynthase 3 (OAS3) (protein, UniProt Q9Y6K5 1-1087)
chain: MDLYSTPAAALDRFVARRLQPRKEFVEKARRALGALAAALRERGGRLGAAAPRVLKTVKGGSSGRGTALKGGCDSELVIFLDCFKSYVDQRARRAEILSEMRASLESWWQNPVPGLRLTFPEQSVPGALQFRLTSVDLEDWMDVSLVPAFNVLGQAGSGVKPKPQVYSTLLNSGCQGGEHAACFTELRRNFVNIRPAKLKNLILLVKHWYHQVCLQGLWKETLPPVYALELLTIFAWEQGCKKDAFSLAEGLRTVLGLIQQHQHLCVFWTVNYGFEDPAVGQFLQRQLKRPRPVILDPADPTWDLGNGAAWHWDLLAQEAASCYDHPCFLRGMGDPVQSWKGPGLPRAGCSGLGHPIQLDPNQKTPENSKSLNAVYPRAGSKPPSCPAPGPTGAASIVPSVPGMALDLSQIPTKELDRFIQDHLKPSPQFQEQVKKAIDIILRCLHENCVHKASRVSKGGSFGRGTDLRDGCDVELIIFLNCFTDYKDQGPRRAEILDEMRAQLESWWQDQVPSLSLQFPEQNVPEALQFQLVSTALKSWTDVSLLPAFDAVGQLSSGTKPNPQVYSRLLTSGCQEGEHKACFAELRRNFMNIRPVKLKNLILLVKHWYRQVAAQNKGKGPAPASLPPAYALELLTIFAWEQGCRQDCFNMAQGFRTVLGLVQQHQQLCVYWTVNYSTEDPAMRMHLLGQLRKPRPLVLDPADPTWNVGHGSWELLAQEAAALGMQACFLSRDGTSVQPWDVMPALLYQTPAGDLDKFISEFLQPNRQFLAQVNKAVDTICSFLKENCFRNSPIKVIKVVKGGSSAKGTALRGRSDADLVVFLSCFSQFTEQGNKRAEIISEIRAQLEACQQERQFEVKFEVSKWENPRVLSFSLTSQTMLDQSVDFDVLPAFDALGQLVSGSRPSSQVYVDLIHSYSNAGEYSTCFTELQRDFIISRPTKLKSLIRLVKHWYQQCTKISKGRGSLPPQHGLELLTVYAWEQGGKDSQFNMAEGFRTVLELVTQYRQLCIYWTINYNAKDKTVGDFLKQQLQKPRPIILDPADPTGNLGHNARWDLLAKEAAACTSALCCMGRNGIPIQPWPVKAAV
B5: Thioredoxin-dependent peroxide reductase, mitochondrial (PRDX3) (protein, UniProt P30048 62-256)
chain: APAVTQHAPYFKGTAVVNGEFKDLSLDDFKGKYLVLFFYPLDFTFVCPTEIVAFSDKANEFHDVNCEVVAVSVDSHFSHLAWINTPRKNGGLGHMNIALLSDLTKQISRDYGVLLEGSGLALRGLFIIDPNGVIKHLSVNDLPVGRSVEETLRLVKAFQYVETHGEVCPANWTPDSPTIKPSPAASKEYFQKVNQ

target: T1, Zeb1/GFP fusion protein; test: affinity purification with mass spectrometry; Zeb1/GFP captured from MCF7 nuclear extracts on llama nano-antibodies against GFP immobilized on magnetic beads; washed 4 times with RIPA buffer; SDS-PAGE, in-gel trypsin digest, LC-MALDI TOF/TOF; doxycycline-induced cells, wt p53 or shp53, low or high SORE6-mCherry (Oct4/Sox2) reporter

binding, binds:
REST corepressor (human (endogenous in MCF-7))
SMARCA2 (SNF2L2) (from UniProt P51531 1-1590)
SWI/SNF complex sub-unit SMARCC2 (SMARCC2) (from UniProt Q8TAQ2 1-1214)
E3 ubiquitin-protein ligase TRIM33 (TRIM33) (from UniProt Q9UPN9 1-1127)
TRIM25 (from UniProt Q14258 1-630)
X-ray repair cross-complementing protein 5 (XRCC5) (from UniProt P13010 1-732)
SMARCC1 (from UniProt Q92922 1-1105)
Splicing factor 3B sub-unit 1 (SF3B1) (from UniProt O75533 1-1304)
C-terminal-binding protein 2 (CTBP2) (from UniProt P56545 1-445)
CHD5 (from UniProt Q8TDI0 1-1954)
Desmoplakin (DSP) (from UniProt P15924 1-2871)
SMARCA4 (BRG1) (from UniProt P51532 1-1647)
ELAV-like protein 1 (ELAVL1) (from UniProt Q15717 1-326)
B1
B2
B3
B4
B5
